These results are taken from PMC4800418.

The chains behind the UniProt entries cited, without tags or fusion partners. Where a name states a change or a piece, a line headed by the entry shows the natural chain unless it says otherwise.
UniProt B2RHE8: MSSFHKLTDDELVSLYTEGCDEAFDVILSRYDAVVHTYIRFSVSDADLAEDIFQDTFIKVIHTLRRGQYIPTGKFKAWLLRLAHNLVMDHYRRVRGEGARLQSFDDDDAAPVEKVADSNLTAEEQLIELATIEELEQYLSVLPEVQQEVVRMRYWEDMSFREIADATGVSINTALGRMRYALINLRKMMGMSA

No constants are given. Whether binding was seen depends on the method and setting. Binding seen in cells or lysates may run through a third protein. A result given as binding can be weak or reduced; the word gives no strength. Tags and fused reporters may be left off the sequences shown.

For the assay, the target named is T1, PorX (endogenous, in P. gingivalis lysate) (Porphyromonas gingivalis (endogenous in the sigP/sigP-Myc+ complement strain)) (UniProt B2RJJ3).
T1 sequence: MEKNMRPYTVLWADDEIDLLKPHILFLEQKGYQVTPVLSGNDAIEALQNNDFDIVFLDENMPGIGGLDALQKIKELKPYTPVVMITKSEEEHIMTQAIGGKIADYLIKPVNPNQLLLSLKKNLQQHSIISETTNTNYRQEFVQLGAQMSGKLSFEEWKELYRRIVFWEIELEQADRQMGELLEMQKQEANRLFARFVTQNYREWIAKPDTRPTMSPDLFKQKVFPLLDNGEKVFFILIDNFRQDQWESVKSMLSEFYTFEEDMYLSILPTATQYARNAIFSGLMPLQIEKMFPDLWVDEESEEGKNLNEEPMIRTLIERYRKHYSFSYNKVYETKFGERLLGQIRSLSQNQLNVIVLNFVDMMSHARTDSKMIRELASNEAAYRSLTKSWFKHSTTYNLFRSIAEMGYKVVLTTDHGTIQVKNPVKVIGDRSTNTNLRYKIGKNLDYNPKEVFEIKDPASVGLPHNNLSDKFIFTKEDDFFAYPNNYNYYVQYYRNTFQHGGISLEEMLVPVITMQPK
As to the kind of experiment: co-IP; P. gingivalis lysates (BugBuster) incubated with anti-PorX antibody cross-linked to Protein G sepharose; washed 5 times with 50 mM Tris-HCl, 0.15 M NaCl, 0.05% NP-40, pH 7.5; blots with anti-SigP and anti-c-Myc.

Turning to “SigP-Myc (in the sigP/sigP-Myc+ complement strain) (from UniProt B2RHE8)”, the binding result was “binds”.
